Measurements from US11427625B2, “Expression of NKG2D activating ligand proteins for sensitizing cancer cells to attack by cytotoxic immune cells” (University of Pittsburgh—Of the Commonwealth System of …, priority 2016, dated 2022).
At least one structure is not confirmed: it was looked up by name or label, or the drawing left a doubt.

Tested on: IDH^Mut astrocytes
Test: ULBP3 expression by RT-qPCR after decitabine treatment
Type: cell-based, human
Details: 200 nM, 7 days

For `Nc1ncn([C@H]2C[C@H](O)[C@@H](CO)O2)c(=O)n1` [decitabine], the ULBP3 expression was “comparable to IDH^WT (WT) astrocytes”.
